# From patent US20120065367A1 (priority 2009, published 2012)
# Test: general procedure: peptide synthesis; WSC·HCl/HOBt
# Settings: late stage modification step
Substance,"step yield (head-to-tail ring, sequence written open)",step yield
D-Pen-N-hexanoate-cRGDfK,30%,
TMEC-[N-hexanoate-c(Arg-Gly-Asp-D-Phe-Lys)]2,,25%
